For some assays here: Some peptides are written in HELM: one residue between dots, names in brackets for other building blocks, links after the first $. No end group written: not given here.
How the values were obtained:
[1] = peptide made by a vendor (Fmoc solid-phase peptide synthesis); conditions: whole synthesis, reverse phase HPLC
[2] = general procedure: Fmoc solid-phase peptide synthesis; conditions: whole synthesis, reverse phase HPLC

Row | Substance | final purity (method not given) [1] [%] | final HPLC purity [2] [%]
1 | LRRASLG-NH2 | >99 | 
2 | RRGHYY—NH2 |  | >95
3 | HSAYSDTRRGDYG-NH2 |  | >95
4 | AAGHYY-NH2 |  | >95
5 | PEPTIDE1{H.S.A.C.S.D.T.R.R.G.D.C.G.[am]}$PEPTIDE1,PEPTIDE1,4:R3-12:R3$$$V2.0 |  | >90
